# According to PMC12203971:
# Results are given in words; binding and its absence hold for the method and conditions named.
# B1: Drebrin-SAH (single alpha-helix region of human Drebrin, residues 173-238, with an eight-residue N-terminal linker) (domain or fragment)
# chain: GSHMKDPMKRINREQFWEQAKKEEELRKEEERKKALDERLRFEQERMEQERQEQEERERRYREREQQIEEHRRK
# Legend:
# [1] = target: Drebrin-SAH (single alpha-helix region of human Drebrin, residues 173-238, with an eight-residue N-terminal linker) (human); assay: SEC-MALS; SEC-MALLS/RI; 220 uM Drebrin-SAH injected on Superdex Increase 75 5/150 in 17 mM NaH2PO4, 3 mM Na2HPO4, 50 mM NaCl, pH 6, 0.3 ml/min; 25 C; both purified
# [2] = target: Drebrin-SAH (single alpha-helix region of human Drebrin, residues 173-238, with an eight-residue N-terminal linker) (human); assay: SAXS; batch mode at 20 C, EMBL-P12 beam line; Drebrin-SAH at 88, 175 and 350 uM in 17 mM NaH2PO4, 3 mM Na2HPO4, 50 mM NaCl, pH 6; concentration-independent MW estimate from scattering invariants; both purified
binder,measurement,setting,value
B1,binding,[1],no binding (tested: 220 uM)
same,binding,[2],"no binding (tested: 88, 175 and 350 uM)"
